Measurements from article PMC11242413.
These are yes or no findings as the source states them, for the method shown.

Target: WW4 domain of a ubiquitin ligase WWP1 (UniProt Q9H0M0)
Assay: NMR 15N CPMG relaxation dispersion; WW4 in the free state (no denaturant) at 2.0 mM, quick measurement; ΔR2eff values compared with those at the usual 250 µM; both purified

WW4 domain of a ubiquitin ligase WWP1 (from UniProt Q9H0M0 494-532) (domain or fragment)
binding: no binding (tested: 2.0 mM)
